Data as given in PubChem BioAssay AID1259254 (NCATS, 2017)
In all, the deposit lists about 59,000 reagents; shown is a part drawn at random. Over the whole deposit, about 1,550 (2.6%) were called active. 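G2 share is only a proxy for re-replication; each gene was hit by three separate siRNAs, and active genes were retested.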 A number with no mark means an inactive call. Reagents against one gene are numbered here. Not all columns of the deposit are shown. Reagent sequences are not shown. Not stated in the record: the amount of reagent.

- Aim: 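Finding genes that stop cells copying their DNA twice in one cycle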 (primary screen)
- Cell system: human HCT116 colorectal cancer cells
- Reagents: single siRNA against human genes
- Timing: 3 days
- Detection: 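Nuclei stained with Hoechst and imaged; cell-cycle phase assigned by DNA content; G2 share scaled per plate, non-targeting siRNA 0%, GMNN siRNA 100%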
- Direction: G2 robust z-score and G2 cells, % of GMNN control: higher = more G2 cells, more excess DNA replication
- Active means: 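An siRNA counts as active if its G2 robust z-score lies at least 5 MADs above the screen median; here such calls match roughly 38% of GMNN control or more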

After knock-down of TRPV6 (GeneID 55503) #1 the results were G2 robust z-score -0.915; G2 cells, % of GMNN control -3.47.
For TRPV6 (GeneID 55503) #2, the values are G2 robust z-score -1.32; G2 cells, % of GMNN control -6.34.
Silencing of TRPV6 (GeneID 55503) #3 resulted in: G2 robust z-score -1.11; G2 cells, % of GMNN control -4.82.
For ACOT9 (GeneID 23597) #1 the deposit lists G2 robust z-score 0.696; G2 cells, % of GMNN control 7.86.
ACOT9 (GeneID 23597) #2 gave G2 robust z-score -1.26; G2 cells, % of GMNN control -5.89.
Depletion of ACOT9 (GeneID 23597) #3 resulted in: G2 robust z-score -0.621; G2 cells, % of GMNN control -1.4.
After knock-down of IFIT1B (GeneID 439996) #1, the record shows G2 robust z-score 2.11; G2 cells, % of GMNN control 17.8.
IFIT1B (GeneID 439996) #2 showed G2 robust z-score -0.379; G2 cells, % of GMNN control 0.304.
IFIT1B (GeneID 439996) #3 scored G2 robust z-score 5.79 (active); G2 cells, % of GMNN control 43.7.

2 entries already listed, arranged by “G2 robust z-score”, ascending.
ACOT9 (GeneID 23597) #3 — G2 robust z-score: -0.621; G2 cells, % of GMNN control: -1.4
IFIT1B (GeneID 439996) #1 — G2 robust z-score: 2.11; G2 cells, % of GMNN control: 17.8

Further records follow:
Knock-down of IPO9 (GeneID 55705) #1 resulted in: G2 robust z-score -0.504; G2 cells, % of GMNN control -0.58.
With knock-down of IPO9 (GeneID 55705) #2 the results were G2 robust z-score -0.943; G2 cells, % of GMNN control -3.67.
Knock-down of IPO9 (GeneID 55705) #3 gave: G2 robust z-score -0.514; G2 cells, % of GMNN control -0.65.
Silencing of CCDC18 (GeneID 343099) #1 came out at: G2 robust z-score -0.0752; G2 cells, % of GMNN control 2.44.
CCDC18 (GeneID 343099) #2 scored G2 robust z-score -0.583; G2 cells, % of GMNN control -1.14.
Against CCDC18 (GeneID 343099) #3, the values are G2 robust z-score 0.0353; G2 cells, % of GMNN control 3.22.
Silencing of RPL24 (GeneID 6152) #1 came out at: G2 robust z-score 1.61; G2 cells, % of GMNN control 14.3.
Against RPL24 (GeneID 6152) #2, the values are G2 robust z-score 1.52; G2 cells, % of GMNN control 13.7.
Against RPL24 (GeneID 6152) #3, the entry reads G2 robust z-score 2.01; G2 cells, % of GMNN control 17.1.
